Measured data: PubChem BioAssay AID1259405 (NCATS, 2018)

Test: 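Knock-downs that lift recombinant protein yield in hamster ovary cells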 (primary screen)
Cells: Chinese hamster CHO-K1 ovary cells with stable secreted eGFP expression
Reagents: single siRNA against mouse genes, 0.8 pmol siRNA per well (2 µl of 400 nM stock)
Duration: 3 days
Measurement: 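Per-well intracellular GFP measured by laser scanning cytometry, plus viability from ATP luminescence, each relative to plate median of non-targeting control wells, in %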
Reading the numbers: GFP, % of control: higher = more GFP per well, higher productivity; viability (ATP), % of control: higher = more viable cells (more ATP)
Active means: 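Called active when intracellular GFP, relative to negative control, is at or above 120%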
The deposit covers about 50,000 reagents; below is a part drawn at random. Of all reagents, about 4,000 (8%) were called active. 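Mouse siRNA library applied to hamster cells; one well for each siRNA.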 Reagents against one gene are numbered here. No sequences are given here.

How did the screen score Dnajc19 #1?
GFP, % of control: 83.8; viability (ATP), % of control: 81.6; Outcome: inactive

How did the screen score Dnajc19 #2?
GFP, % of control: 108; viability (ATP), % of control: 103; Outcome: inactive

How did the screen score Dnajc19 #3?
GFP, % of control: 55.2; viability (ATP), % of control: 73.1; Outcome: inactive

With Cybb #1, how do the results read?
GFP, % of control: 80.8; viability (ATP), % of control: 77.5; Outcome: inactive

Which result is listed for Cybb #2?
GFP, % of control: 85; viability (ATP), % of control: 68.7; Outcome: inactive

How did the screen score Cybb #3?
GFP, % of control: 193; viability (ATP), % of control: 118; Outcome: active

For Or8b1b #1, what does the deposit list?
GFP, % of control: 74.9; viability (ATP), % of control: 61.7; Outcome: inactive

For Or8b1b #2, what does the deposit list?
GFP, % of control: 62.6; viability (ATP), % of control: 66.8; Outcome: inactive

With Or8b1b #3, what was measured?
GFP, % of control: 82.3; viability (ATP), % of control: 21.3; Outcome: inactive

With Cpsf6 #1, what does the deposit list?
GFP, % of control: 61.8; viability (ATP), % of control: 59.8; Outcome: inactive

For Cpsf6 #2, what does the deposit list?
GFP, % of control: 56.3; viability (ATP), % of control: 72.9; Outcome: inactive

What is on record for Cpsf6 #3?
GFP, % of control: 93.3; viability (ATP), % of control: 74.1; Outcome: inactive

For Spg21 #1, what does the deposit list?
GFP, % of control: 84.3; viability (ATP), % of control: 89.4; Outcome: inactive

With Spg21 #2, how do the results read?
GFP, % of control: 92.6; viability (ATP), % of control: 136; Outcome: inactive

What is on record for Spg21 #3?
GFP, % of control: 113; viability (ATP), % of control: 115; Outcome: inactive

Reformatted: 3 of the entries above.
Target gene | reagent | GFP, % of control | viability (ATP), % of control | Outcome
Cybb | 2 | 85 | 68.7 | inactive
Cybb | 3 | 193 | 118 | active
Or8b1b | 1 | 74.9 | 61.7 | inactive

Continued:
What is on record for Klra20 #1?
GFP, % of control: 101; viability (ATP), % of control: 112; Outcome: inactive

For Klra20 #2, what was measured?
GFP, % of control: 70; viability (ATP), % of control: 67.3; Outcome: inactive

How did the screen score Klra20 #3?
GFP, % of control: 94.8; viability (ATP), % of control: 76.9; Outcome: inactive

For Arhgef1 #1, how do the results read?
GFP, % of control: 80.2; viability (ATP), % of control: 96.6; Outcome: inactive

For Arhgef1 #2, what was measured?
GFP, % of control: 92.7; viability (ATP), % of control: 91.6; Outcome: inactive

What is on record for Arhgef1 #3?
GFP, % of control: 47.3; viability (ATP), % of control: 69.3; Outcome: inactive

For Egln1 #1, what does the deposit list?
GFP, % of control: 84.3; viability (ATP), % of control: 73.3; Outcome: inactive

Which result is listed for Egln1 #2?
GFP, % of control: 82.4; viability (ATP), % of control: 90.4; Outcome: inactive

For Egln1 #3, how do the results read?
GFP, % of control: 105; viability (ATP), % of control: 84.9; Outcome: inactive

With Crb3 #1, what does the deposit list?
GFP, % of control: 63.6; viability (ATP), % of control: 56; Outcome: inactive

Which result is listed for Crb3 #2?
GFP, % of control: 65.5; viability (ATP), % of control: 58.6; Outcome: inactive

For Crb3 #3, what does the deposit list?
GFP, % of control: 109; viability (ATP), % of control: 104; Outcome: inactive

With Trmt2a #1, what does the deposit list?
GFP, % of control: 103; viability (ATP), % of control: 101; Outcome: inactive

How did the screen score Trmt2a #2?
GFP, % of control: 60.2; viability (ATP), % of control: 77.4; Outcome: inactive

What did the screen give for Trmt2a #3?
GFP, % of control: 24.5; viability (ATP), % of control: 60.1; Outcome: inactive

For Lrrc20 #1, what does the deposit list?
GFP, % of control: 50; viability (ATP), % of control: 63.7; Outcome: inactive

For Lrrc20 #2, how do the results read?
GFP, % of control: 78.4; viability (ATP), % of control: 80; Outcome: inactive

With Lrrc20 #3, how do the results read?
GFP, % of control: 149; viability (ATP), % of control: 63.2; Outcome: active

With Agr2 #1, what does the deposit list?
GFP, % of control: 77; viability (ATP), % of control: 64.7; Outcome: inactive

For Agr2 #2, what does the deposit list?
GFP, % of control: 103; viability (ATP), % of control: 72.4; Outcome: inactive

With Agr2 #3, how do the results read?
GFP, % of control: 62.2; viability (ATP), % of control: 83.5; Outcome: inactive

For Grin2b #1, what does the deposit list?
GFP, % of control: 101; viability (ATP), % of control: 92.2; Outcome: inactive

With Grin2b #2, what was measured?
GFP, % of control: 61.5; viability (ATP), % of control: 40.7; Outcome: inactive

For Grin2b #3, what does the deposit list?
GFP, % of control: 53.6; viability (ATP), % of control: 37.9; Outcome: inactive

What is on record for Ankrd9 #1?
GFP, % of control: 65.8; viability (ATP), % of control: 40.9; Outcome: inactive

For Ankrd9 #2, what does the deposit list?
GFP, % of control: 70.9; viability (ATP), % of control: 76.7; Outcome: inactive

For Ankrd9 #3, how do the results read?
GFP, % of control: 108; viability (ATP), % of control: 118; Outcome: inactive
